Experimental data published in PMC9205938.
These are yes or no findings as the source states them, for the method shown. In cells and extracts the contact can be indirect. Here binding means that the protein was enriched with, or labelled near, the bait; the list need not be complete. No binding means not detected with the bait. Sequences can lack the tags named with a protein.

Chains of the proteins cited; added tags and fusions are not shown.
UniProt Q2KHR3: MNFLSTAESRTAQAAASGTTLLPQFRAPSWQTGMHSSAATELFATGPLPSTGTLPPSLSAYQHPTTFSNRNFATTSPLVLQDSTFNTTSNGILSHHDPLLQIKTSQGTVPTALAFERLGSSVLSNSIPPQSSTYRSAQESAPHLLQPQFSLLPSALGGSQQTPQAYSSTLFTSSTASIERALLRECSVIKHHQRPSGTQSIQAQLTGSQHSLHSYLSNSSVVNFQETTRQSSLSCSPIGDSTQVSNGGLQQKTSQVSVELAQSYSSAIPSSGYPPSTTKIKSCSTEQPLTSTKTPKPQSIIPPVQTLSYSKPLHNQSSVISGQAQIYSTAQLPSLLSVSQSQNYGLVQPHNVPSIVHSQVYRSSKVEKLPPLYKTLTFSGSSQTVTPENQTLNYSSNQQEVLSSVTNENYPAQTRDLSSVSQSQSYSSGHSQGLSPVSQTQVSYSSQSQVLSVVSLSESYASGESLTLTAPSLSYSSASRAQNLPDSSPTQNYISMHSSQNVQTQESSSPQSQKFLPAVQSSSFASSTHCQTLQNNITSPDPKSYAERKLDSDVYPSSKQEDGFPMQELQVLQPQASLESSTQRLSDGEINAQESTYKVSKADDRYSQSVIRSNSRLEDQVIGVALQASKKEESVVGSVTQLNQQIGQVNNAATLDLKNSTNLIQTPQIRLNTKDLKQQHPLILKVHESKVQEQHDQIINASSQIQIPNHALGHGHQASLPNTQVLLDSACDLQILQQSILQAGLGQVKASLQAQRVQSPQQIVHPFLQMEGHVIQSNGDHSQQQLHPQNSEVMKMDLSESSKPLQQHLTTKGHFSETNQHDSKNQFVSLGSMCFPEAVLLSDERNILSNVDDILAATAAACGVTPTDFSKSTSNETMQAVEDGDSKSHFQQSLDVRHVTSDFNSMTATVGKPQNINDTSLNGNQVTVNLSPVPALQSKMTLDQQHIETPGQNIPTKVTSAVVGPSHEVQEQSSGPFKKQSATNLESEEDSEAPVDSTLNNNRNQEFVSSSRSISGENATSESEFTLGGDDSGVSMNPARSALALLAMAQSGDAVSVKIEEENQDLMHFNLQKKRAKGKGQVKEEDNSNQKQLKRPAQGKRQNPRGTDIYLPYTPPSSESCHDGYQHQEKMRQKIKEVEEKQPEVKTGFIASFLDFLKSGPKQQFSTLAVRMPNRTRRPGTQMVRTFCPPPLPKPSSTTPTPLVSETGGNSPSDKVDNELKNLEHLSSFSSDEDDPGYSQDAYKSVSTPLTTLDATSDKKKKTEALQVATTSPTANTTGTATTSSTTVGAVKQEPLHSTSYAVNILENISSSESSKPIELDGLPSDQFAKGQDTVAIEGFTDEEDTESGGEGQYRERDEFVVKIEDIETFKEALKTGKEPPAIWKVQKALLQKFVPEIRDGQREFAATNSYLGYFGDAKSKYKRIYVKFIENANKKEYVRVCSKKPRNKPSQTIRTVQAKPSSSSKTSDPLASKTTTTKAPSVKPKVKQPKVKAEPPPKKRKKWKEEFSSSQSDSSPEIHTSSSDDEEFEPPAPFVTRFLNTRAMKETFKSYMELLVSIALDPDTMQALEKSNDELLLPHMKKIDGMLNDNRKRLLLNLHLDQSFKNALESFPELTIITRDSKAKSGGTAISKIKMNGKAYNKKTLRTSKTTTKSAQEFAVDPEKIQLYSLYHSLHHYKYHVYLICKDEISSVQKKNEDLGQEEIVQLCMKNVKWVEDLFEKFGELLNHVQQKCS
UniProt P51587: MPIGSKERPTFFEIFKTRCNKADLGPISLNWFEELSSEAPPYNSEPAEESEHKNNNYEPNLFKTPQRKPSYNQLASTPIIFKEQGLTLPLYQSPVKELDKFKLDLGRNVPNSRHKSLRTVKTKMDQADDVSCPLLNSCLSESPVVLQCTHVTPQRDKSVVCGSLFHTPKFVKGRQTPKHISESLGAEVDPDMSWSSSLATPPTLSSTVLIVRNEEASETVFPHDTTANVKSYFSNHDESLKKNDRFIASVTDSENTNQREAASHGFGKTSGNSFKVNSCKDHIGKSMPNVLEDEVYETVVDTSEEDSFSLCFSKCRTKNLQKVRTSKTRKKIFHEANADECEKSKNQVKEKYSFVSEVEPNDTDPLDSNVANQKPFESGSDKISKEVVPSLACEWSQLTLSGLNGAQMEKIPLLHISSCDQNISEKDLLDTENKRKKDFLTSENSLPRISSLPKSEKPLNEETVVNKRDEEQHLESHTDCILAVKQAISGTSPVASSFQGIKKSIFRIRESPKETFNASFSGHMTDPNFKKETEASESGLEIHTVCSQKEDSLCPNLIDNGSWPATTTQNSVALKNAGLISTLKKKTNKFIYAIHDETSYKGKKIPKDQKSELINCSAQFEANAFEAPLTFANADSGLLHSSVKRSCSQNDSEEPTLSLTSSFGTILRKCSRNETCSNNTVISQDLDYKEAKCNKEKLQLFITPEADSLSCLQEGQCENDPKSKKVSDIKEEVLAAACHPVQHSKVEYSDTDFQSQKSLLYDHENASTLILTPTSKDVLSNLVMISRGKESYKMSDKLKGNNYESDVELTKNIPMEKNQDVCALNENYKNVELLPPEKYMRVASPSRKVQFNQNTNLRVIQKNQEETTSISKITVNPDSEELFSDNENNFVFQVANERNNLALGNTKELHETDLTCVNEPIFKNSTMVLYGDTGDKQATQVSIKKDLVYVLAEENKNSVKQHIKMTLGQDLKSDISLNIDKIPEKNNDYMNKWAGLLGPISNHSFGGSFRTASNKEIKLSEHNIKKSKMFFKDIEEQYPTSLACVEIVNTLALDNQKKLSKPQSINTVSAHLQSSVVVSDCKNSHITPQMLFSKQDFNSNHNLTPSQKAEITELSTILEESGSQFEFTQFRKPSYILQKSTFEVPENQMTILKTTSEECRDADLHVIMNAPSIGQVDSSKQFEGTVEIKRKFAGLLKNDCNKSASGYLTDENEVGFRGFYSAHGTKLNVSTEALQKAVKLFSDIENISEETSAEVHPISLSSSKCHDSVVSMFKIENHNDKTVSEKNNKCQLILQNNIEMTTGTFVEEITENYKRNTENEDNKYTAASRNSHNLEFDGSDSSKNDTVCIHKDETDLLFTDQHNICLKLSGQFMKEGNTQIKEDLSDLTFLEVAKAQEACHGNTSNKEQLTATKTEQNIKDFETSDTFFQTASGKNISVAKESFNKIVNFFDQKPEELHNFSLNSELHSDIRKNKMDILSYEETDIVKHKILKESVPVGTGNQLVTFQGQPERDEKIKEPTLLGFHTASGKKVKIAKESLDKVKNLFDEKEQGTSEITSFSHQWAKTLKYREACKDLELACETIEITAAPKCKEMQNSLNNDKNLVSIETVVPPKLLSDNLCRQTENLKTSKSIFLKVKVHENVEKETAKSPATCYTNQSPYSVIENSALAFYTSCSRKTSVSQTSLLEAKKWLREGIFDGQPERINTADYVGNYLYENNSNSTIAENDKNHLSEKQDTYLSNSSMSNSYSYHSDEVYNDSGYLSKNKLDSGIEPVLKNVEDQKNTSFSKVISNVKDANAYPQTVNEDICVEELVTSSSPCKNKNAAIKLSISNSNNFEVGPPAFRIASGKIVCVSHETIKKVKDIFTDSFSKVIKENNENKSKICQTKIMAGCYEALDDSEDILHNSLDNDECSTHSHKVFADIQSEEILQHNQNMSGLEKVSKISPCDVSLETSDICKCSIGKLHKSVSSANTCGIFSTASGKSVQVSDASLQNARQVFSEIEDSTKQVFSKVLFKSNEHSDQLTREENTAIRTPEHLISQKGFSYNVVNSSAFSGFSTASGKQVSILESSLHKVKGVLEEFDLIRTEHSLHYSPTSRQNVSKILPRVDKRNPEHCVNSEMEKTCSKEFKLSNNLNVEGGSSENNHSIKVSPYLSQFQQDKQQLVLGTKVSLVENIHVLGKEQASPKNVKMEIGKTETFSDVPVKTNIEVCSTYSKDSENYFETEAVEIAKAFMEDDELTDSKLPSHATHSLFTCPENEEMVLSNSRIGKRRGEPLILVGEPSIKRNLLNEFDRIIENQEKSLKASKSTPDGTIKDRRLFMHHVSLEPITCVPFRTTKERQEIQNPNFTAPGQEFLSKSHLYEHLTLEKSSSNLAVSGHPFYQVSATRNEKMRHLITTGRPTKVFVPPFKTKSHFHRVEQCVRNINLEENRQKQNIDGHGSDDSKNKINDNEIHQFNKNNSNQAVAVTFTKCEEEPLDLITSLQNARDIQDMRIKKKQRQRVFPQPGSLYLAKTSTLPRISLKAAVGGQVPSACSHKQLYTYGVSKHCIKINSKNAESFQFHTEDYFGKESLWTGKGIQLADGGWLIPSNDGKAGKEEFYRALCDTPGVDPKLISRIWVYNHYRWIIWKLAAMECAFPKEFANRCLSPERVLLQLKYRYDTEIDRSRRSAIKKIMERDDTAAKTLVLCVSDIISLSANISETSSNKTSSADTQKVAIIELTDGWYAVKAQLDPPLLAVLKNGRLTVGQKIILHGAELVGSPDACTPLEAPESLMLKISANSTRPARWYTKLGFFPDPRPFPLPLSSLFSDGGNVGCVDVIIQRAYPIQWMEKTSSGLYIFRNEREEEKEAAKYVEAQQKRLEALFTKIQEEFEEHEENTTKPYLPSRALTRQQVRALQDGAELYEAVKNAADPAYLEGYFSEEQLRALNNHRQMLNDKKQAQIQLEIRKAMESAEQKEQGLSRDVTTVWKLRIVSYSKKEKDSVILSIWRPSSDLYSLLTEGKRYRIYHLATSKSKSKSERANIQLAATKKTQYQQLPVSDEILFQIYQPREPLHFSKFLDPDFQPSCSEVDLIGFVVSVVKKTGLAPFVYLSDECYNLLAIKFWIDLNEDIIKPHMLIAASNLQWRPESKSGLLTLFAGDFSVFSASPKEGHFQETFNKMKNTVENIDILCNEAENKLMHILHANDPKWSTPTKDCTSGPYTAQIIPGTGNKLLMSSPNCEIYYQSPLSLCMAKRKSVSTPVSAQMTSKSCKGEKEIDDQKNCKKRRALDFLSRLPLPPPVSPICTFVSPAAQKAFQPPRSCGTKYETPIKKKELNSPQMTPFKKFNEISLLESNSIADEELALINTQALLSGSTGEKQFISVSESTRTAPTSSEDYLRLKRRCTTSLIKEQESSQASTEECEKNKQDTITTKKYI
UniProt Q06609: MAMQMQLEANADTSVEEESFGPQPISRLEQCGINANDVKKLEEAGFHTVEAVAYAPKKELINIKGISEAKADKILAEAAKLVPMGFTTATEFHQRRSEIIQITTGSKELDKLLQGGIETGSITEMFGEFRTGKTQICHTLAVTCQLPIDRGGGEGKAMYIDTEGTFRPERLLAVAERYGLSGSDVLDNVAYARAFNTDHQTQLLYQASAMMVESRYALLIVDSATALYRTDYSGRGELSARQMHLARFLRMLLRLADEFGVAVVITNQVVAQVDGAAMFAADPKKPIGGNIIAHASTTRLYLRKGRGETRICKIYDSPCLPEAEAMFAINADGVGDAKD

B1: EMSY in 293 cells (protein, UniProt Q7Z589 1-1322)
chain: MPVVWPTLLDLSRDECKRILRKLELEAYAGVISALRAQGDLTKEKKDLLGELSKVLSISTERHRAEVRRAVNDERLTTIAHNMSGPNSSSEWSIEGRRLVPLMPRLVPQTAFTVTANAVANAAIQHNASLPVPAETGSKEVVCYSYTSTTSTPTSTPVPSGSIATVKSPRPASPASNVVVLPSGSTVYVKSVSCSDEDEKPRKRRRTNSSSSSPVVLKEVPKAVVPVSKTITVPVSGSPKMSNIMQSIANSLPPHMSPVKITFTKPSTQTTNTTTQKVIIVTTSPSSTFVPNILSKSHNYAAVTKLVPTSVIASTTQKPPVVITASQSSLVSNSSSGSSSSTPSPIPNTVAVTAVVSSTPSVVMSTVAQGVSTSAIKMASTRLPSPKSLVSAPTQILAQFPKQHQQSPKQQLYQVQQQTQQQVAQPSPVSHQQQPQQSPLPPGIKPTIQIKQESGVKIITQQVQPSKILPKPVTATLPTSSNSPIMVVSSNGAIMTTKLVTTPTGTQATYTRPTVSPSIGRMAATPGAATYVKTTSGSIITVVPKSLATLGGKIISSNIVSGTTTKITTIPMTSKPNVIVVQKTTGKGTTIQGLPGKNVVTTLLNAGGEKTIQTVPTGAKPAILTATRPITKMIVTQPKGIGSTVQPAAKIIPTKIVYGQQGKTQVLIKPKPVTFQATVVSEQTRQLVTETLQQASRVAEAGNSSIQEGKEEPQNYTDSSSSSTESSQSSQDSQPVVHVIASRRQDWSEHEIAMETSPTIIYQDVSSESQSATSTIKALLELQQTTVKEKLESKPRQPTIDLSQMAVPIQMTQEKRHSPESPSIAVVESELVAEYITTERTDEGTEVAFPLLVSHRSQPQQPSQPQRTLLQHVAQSQTATQTSVVVKSIPASSPGAITHIMQQALSSHTAFTKHSEELGTEEGEVEEMDTLDPQTGLFYRSALTQSQSAKQQKLSQPPLEQTQLQVKTLQCFQTKQKQTIHLQADQLQHKLPQMPQLSIRHQKLTPLQQEQAQPKPDVQHTQHPMVAKDRQLPTLMAQPPQTVVQVLAVKTTQQLPKLQQAPNQPKIYVQPQTPQSQMSLPASSEKQTASQVEQPIITQGSSVTKITFEGRQPPTVTKITGGSSVPKLTSPVTSISPIQASEKTAVSDILKMSLMEAQIDTNVEHMIVDPPKKALATSMLTGEAGSLPSTHMVVAGMANSTPQQQKCRESCSSPSTVGSSLTTRKIDPPAVPATGQFMRIQNVGQKKAEESPAEIIIQAIPQYAIPCHSSSNVVVEPSGLLELNNFTSQQLDDEETAMEQDIDSSTEDGTEPSPSQSSAERS

These molecules were tested against T1, FLAG-tagged full length ZFP281 (UniProt Q99LI5) (assay: affinity purification with mass spectrometry; FLAG-ZFP281 induced in 293 Flp-in-TRex cells; nuclear extract at 300 mM NaCl, FLAG-affinity purification in the presence of benzonase; SDS-PAGE, silver staining, mass spectrometry).
T1 sequence: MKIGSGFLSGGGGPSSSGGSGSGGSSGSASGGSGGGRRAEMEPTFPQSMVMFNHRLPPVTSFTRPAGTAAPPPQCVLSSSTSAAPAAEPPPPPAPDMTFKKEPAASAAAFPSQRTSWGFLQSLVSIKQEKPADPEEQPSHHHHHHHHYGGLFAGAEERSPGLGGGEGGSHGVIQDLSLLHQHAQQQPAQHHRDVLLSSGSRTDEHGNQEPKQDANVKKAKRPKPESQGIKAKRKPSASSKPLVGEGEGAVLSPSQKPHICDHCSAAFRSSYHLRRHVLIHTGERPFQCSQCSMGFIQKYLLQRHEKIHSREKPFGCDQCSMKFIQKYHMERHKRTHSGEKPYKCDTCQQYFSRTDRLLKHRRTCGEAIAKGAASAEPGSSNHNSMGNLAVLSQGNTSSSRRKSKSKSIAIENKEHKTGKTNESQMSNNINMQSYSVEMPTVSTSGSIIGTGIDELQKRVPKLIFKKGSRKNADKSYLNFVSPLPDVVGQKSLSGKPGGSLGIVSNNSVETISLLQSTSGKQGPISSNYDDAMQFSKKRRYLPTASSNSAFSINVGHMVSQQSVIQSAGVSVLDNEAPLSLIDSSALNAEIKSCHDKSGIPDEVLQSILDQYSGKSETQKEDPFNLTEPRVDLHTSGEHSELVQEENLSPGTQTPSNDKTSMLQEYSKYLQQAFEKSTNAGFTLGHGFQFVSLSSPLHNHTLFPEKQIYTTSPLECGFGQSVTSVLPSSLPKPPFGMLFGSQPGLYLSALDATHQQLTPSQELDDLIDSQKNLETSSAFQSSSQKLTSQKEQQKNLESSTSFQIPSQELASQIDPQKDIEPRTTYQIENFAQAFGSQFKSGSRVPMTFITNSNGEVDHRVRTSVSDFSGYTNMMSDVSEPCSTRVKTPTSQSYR
For “QSER1 in 293 cells (from UniProt Q2KHR3 1-1735)”, the binding was “binds”.
For “BRCA2 in 293 cells (from UniProt P51587 1-3418)”, the binding was “binds”.
“homologous recombinase RAD51 in 293 cells (from UniProt Q06609 1-339)” was tested, and the binding was “no binding”.
For B1, the binding was “binds”.
